Measured values: PMC5940854, “Nitrothiophene carboxamides, a novel narrow spectrum antibacterial series: Mechanism of action and Efficacy” (Scientific Reports, 2018)

Tested on: E. coli strain BW25113
Test: Spontaneous resistance mutation frequency
Assay type: cell-based
Conditions: for resistance frequency: E. coli BW25113, plates with 2x-16x MIC

Q: What does the source list for `O=C(Nc1nc(-c2ccc(F)cc2)cs1)c1ccc([N+](=O)[O-])s1` [compound 15, N-(4-(4-Fluorophenyl)thiazol-2-yl)-5-nitrothiophene-2-carboxamide]?
A: resistance frequency: 10^−8; No. of colonies retrieved/ 10^9 CFU/mL (agar plates with 2x MIC): 127; Resistance mutation frequency (agar plates with 2x MIC): 6.35E-08; No. of colonies retrieved/ 10^9 CFU/mL (agar plates with 4x MIC): 79; Resistance mutation frequency (agar plates with 4x MIC): 3.95E-08; No. of colonies retrieved/ 10^9 CFU/mL (agar plates with 8x MIC): 48; Resistance mutation frequency (agar plates with 8x MIC): 2.40E-08; No. of colonies retrieved/ 10^9 CFU/mL (agar plates with 16x MIC): 11; Resistance mutation frequency (agar plates with 16x MIC): 5.50E-09

Q: Which resistance frequency does the source give for `O=C(Nc1nc(-c2ccc(F)c(F)c2)cs1)c1ccc([N+](=O)[O-])s1` [compound 11, N-(4-(3,4-Difluorophenyl)thiazol-2-yl)-5-nitrothiophene-2-carboxamide] here?
A: Its resistance frequency is 10^−7.

Q: What about the “No. of colonies retrieved/ 10^9 CFU/mL” value (agar plates with 4x MIC) of the same compound?
A: Its value is 58.

Q: And the Resistance mutation frequency (agar plates with 4x MIC)?
A: The Resistance mutation frequency was 2.90E-08.

Q: What about the “No. of colonies retrieved/ 10^9 CFU/mL” value (agar plates with 8x MIC) of the same compound?
A: Its value is 85.

Q: And the Resistance mutation frequency (agar plates with 8x MIC)?
A: The Resistance mutation frequency was 4.25E-08.

Q: And the “No. of colonies retrieved/ 10^9 CFU/mL” value (agar plates with 16x MIC)?
A: The value was 16.

Q: What about the Resistance mutation frequency (agar plates with 16x MIC) of the same compound?
A: Its Resistance mutation frequency is 8.00E-09.
